PubChem BioAssay AID1259425 – University of Nebraska Medical Center, 2018
Aim: 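Find knockdowns that reproduce the gene expression pattern seen when KSR1 is lost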 (primary screen). System: HCT116 human colon cancer cells. Knock-down reagent: siRNA pool against human genes, 50 nM siRNA. Measured: 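mRNA of six signature genes measured together by branched-DNA assay after 50 nM siRNA pool, blank removed, divided by geometric mean of two housekeeping genes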. Direction: BNIP3L mRNA: higher = more BNIP3L transcript after knockdown; NDRG1 mRNA: higher = more NDRG1 transcript after knockdown; BNIP3 mRNA: higher = more BNIP3 transcript after knockdown.
This is an unselected part of about 14,000 deposited reagents. Reagents against one gene are numbered here. Further read-outs or replicates are left out here. No sequences are given here. The record does not give: the time to read-out.

gene	reagent no.	BNIP3L mRNA, set 1	NDRG1 mRNA, set 1	BNIP3 mRNA, set 1
HSH2D	1	0.0985	0.103	0.177
PDK3	1	0.0715	0.0568	0.279
HOXA11	1	0.138	0.0644	0.316
PPP6R1	1	0.186	0.403	0.43
CLIP3	1	0.0873	0.295	0.358
DCHS2	1	0.11	0.266	0.325
FUT2	1	0.0607	0.0533	0.338
HSPA6	1	0.158	0.0355	0.494
LFNG	1	0.0724	0.412	0.317
PPFIBP1	1	0.12	0.214	0.311
FCRL4	1	0.0751	0.469	0.323
ZNF768	1	0.136	0.327	0.466
CHORDC1	1	0.0876	0.228	0.312
NSRP1	1	0.0828	0.141	0.199
GPR34	1	0.13	0.0966	0.257
H2BC21	1	0.0675	0.774	0.219
MTCH1	1	0.181	0.0889	0.286
LRRC20	1	0.263	0.429	0.317
GPRASP3	1	0.0957	0.224	0.316
FAM120B	1	0.201	0.449	0.304
TSKS	1	0.0605	0.105	0.324
SUOX	1	0.131	0.362	0.329
RNF2	1	0.0793	0.23	0.285
GTF2IRD2	1	0.122	0.204	0.546
EPOR	1	0.0736	0.529	0.236
GPR88	1	0.0901	0.269	0.249
LILRB3	1	0.104	0.195	0.31
AK9	1	0.0961	0.0925	0.192
NLGN4X	1	0.147	0.352	0.255
TFAP2D	1	0.0985	0.137	0.223
RPGRIP1L	1	0.161	0.132	0.205
OLFML2B	1	0.141	0.242	0.482
ELAVL3	1	0.102	0.139	0.254
NDUFB3	1	0.125	1.13	0.397
CXADR	1	0.0815	0.0951	0.298
RBMS1	1	0.0973	0.175	0.204
RBMS1	2	0.0748	0.121	0.216
RALGAPB	1	0.166	0.142	0.328
IFNB1	1	0.114	0.598	0.247
OPN1SW	1	0.259	0.988	0.623
PAQR7	1	0.0785	0.118	0.202
GALNT6	1	0.112	0.148	0.262
SPEF1	1	0.125	0.168	0.341
TCEAL1	1	0.0362	0.168	0.305
RHOU	1	0.139	0.172	0.364
GSK3B	1	0.183	0.0485	0.38
NEU2	1	0.08	0.0848	0.257
CNTNAP4	1	0.143	0.0846	0.167
MYH8	1	0.0687	0.141	0.226
TBC1D9	1	0.147	0.211	0.582

Just “NDRG1 mRNA, set 1” (4 entries from above):
LILRB3: 0.195
AK9: 0.0925
NLGN4X: 0.352
TFAP2D: 0.137
